From patent US20230035235A1
These are yes or no findings as the source states them, for the method shown. Some results given as binding are weak or reduced against the parent protein; the word gives no strength. For some of these results: Tags and fused reporters may be left off the sequences shown.

Sequences of proteins named here, by UniProt entry; tags and fusion partners are left off. Residues count along the entry.
UniProt Q92922, residues 2-1105: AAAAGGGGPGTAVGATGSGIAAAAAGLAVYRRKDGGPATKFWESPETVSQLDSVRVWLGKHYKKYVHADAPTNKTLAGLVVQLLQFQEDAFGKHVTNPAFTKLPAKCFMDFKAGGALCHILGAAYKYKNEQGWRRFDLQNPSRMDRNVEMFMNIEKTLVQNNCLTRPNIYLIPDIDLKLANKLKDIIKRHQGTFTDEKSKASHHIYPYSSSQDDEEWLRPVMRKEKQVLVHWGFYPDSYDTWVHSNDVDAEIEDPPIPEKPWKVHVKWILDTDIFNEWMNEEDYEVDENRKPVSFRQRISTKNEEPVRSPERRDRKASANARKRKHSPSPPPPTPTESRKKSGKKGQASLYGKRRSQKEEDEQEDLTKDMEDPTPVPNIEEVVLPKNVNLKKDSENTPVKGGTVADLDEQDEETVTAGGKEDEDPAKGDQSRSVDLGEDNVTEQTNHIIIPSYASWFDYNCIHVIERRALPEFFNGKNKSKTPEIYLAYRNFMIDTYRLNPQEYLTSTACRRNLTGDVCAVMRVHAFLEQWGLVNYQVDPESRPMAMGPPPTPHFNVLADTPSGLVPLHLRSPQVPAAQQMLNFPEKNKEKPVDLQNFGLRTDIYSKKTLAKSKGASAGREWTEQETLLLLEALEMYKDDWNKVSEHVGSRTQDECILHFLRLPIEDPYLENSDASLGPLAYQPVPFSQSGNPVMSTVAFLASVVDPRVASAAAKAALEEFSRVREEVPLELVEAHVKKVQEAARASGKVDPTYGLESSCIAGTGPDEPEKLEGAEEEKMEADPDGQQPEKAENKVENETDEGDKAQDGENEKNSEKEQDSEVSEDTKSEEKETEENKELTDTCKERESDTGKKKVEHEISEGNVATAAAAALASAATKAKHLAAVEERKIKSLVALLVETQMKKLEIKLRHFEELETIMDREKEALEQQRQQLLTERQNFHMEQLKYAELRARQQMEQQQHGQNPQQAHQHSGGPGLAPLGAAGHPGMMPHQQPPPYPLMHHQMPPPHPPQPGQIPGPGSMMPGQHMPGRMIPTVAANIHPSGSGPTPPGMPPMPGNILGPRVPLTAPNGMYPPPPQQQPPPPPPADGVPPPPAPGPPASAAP
UniProt P51531: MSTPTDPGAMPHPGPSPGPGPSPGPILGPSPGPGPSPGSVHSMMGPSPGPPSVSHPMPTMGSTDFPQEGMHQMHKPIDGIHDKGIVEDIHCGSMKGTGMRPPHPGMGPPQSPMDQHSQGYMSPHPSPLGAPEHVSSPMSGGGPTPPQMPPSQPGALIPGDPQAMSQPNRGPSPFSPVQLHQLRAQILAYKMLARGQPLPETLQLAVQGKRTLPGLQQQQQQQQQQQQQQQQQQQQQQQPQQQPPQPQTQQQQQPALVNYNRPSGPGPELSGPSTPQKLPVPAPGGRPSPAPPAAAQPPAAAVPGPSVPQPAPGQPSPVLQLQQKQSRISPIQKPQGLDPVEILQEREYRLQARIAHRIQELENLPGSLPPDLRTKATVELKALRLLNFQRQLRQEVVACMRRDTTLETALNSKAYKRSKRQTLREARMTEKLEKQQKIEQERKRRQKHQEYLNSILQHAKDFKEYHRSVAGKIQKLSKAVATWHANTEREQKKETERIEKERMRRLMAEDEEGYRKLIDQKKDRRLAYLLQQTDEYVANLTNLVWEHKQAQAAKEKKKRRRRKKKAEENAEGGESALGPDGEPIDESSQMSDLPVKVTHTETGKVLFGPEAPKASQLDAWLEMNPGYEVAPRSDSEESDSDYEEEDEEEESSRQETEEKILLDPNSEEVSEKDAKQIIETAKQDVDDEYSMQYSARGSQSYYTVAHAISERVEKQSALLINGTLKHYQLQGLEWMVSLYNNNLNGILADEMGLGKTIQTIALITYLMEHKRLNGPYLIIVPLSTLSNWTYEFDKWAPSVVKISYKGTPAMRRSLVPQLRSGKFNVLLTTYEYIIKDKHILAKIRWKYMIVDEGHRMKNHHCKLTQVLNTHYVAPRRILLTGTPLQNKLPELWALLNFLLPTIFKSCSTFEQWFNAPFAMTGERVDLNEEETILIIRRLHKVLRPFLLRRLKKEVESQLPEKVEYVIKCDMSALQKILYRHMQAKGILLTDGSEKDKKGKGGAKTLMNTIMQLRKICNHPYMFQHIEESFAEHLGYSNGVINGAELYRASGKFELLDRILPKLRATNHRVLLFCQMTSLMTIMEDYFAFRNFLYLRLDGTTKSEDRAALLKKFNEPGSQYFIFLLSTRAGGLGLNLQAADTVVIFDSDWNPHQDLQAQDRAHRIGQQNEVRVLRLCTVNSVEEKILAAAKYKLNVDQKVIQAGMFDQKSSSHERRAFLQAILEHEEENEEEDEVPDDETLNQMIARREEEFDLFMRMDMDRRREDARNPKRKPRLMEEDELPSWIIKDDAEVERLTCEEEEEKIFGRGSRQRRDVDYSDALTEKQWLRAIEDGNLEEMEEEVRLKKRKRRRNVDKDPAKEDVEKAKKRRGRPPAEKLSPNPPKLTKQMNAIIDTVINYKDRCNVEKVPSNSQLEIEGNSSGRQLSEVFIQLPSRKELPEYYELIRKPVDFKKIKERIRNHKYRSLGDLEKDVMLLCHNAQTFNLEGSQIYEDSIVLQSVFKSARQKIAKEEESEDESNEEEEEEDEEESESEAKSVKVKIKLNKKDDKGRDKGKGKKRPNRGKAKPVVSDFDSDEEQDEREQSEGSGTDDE

Legend:
SMARCC1 (human) [1] = target: SMARCC1 (human) (UniProt Q92922); experiment: inter-protein BS3 crosslinks found by CX-MS in HA-PHF10-purified PBAF complexes (HEK-293T)
SMARCA2 (human) [2] = target: SMARCA2 (human) (UniProt P51531); experiment: as above
SMARCC1 (human) [3] = target: SMARCC1 (human) (UniProt Q92922); experiment: inter-protein BS3 crosslinks (CX-MS), HA-BRD7-purified PBAF complexes from HEK-293T
SMARCA2 (human) [4] = target: SMARCA2 (human) (UniProt P51531); experiment: as above

binding (SMARCC1 (human) [1])	binding (SMARCA2 (human) [2])	binding (SMARCC1 (human) [3])	binding (SMARCA2 (human) [4])	Binder
binds	binds	–	–	HA-PHF10 (protein, human, UniProt Q8WUB8 1-498, looked up, not shown: small tags and cut ends) MAAAAGPGAALSPRPCDSDPATPGAQSPKDDNEDNSNDGTQPSKRRRMGSGDSSRSCETSSQDLGFSYYPAENLIEYKWPPDETGEYYMLQEQVSEYLGVTSFKRKYPDLERRDLSHKEKLYLRELNVITETQCTLGLTALRSDEVIDLMIKEYPAKHAEYSVILQEKERQRITDHYKEYSQMQQQNTQKVEASKVPEYIKKAAKKAAEFNSNLNRERMEERRAYFDLQTHVIQVPQGKYKVLPTERTKVSSYPVALIPGQFQEYYKRYSPDELRYLPLNTALYEPPLDPELPALDSDGDSDDGEDGRGDEKRKNKGTSDSSSGNVSEGESPPDSQEDSFQGRQKSKDKAATPRKDGPKRSVLSKSVPGYKPKVIPNAICGICLKGKESNKKGKAESLIHCSQCENSGHPSCLDMTMELVSMIKTYPWQCMECKTCIICGQPHHEEEMMFCDMCDRGYHTFCVGLGAIPSGRWICDCCQRAPPTPRKVGRRGKNSKEG
–	–	binds	binds	PHF10 (protein, human, UniProt Q8WUB8 2-498, looked up) AAAAGPGAALSPRPCDSDPATPGAQSPKDDNEDNSNDGTQPSKRRRMGSGDSSRSCETSSQDLGFSYYPAENLIEYKWPPDETGEYYMLQEQVSEYLGVTSFKRKYPDLERRDLSHKEKLYLRELNVITETQCTLGLTALRSDEVIDLMIKEYPAKHAEYSVILQEKERQRITDHYKEYSQMQQQNTQKVEASKVPEYIKKAAKKAAEFNSNLNRERMEERRAYFDLQTHVIQVPQGKYKVLPTERTKVSSYPVALIPGQFQEYYKRYSPDELRYLPLNTALYEPPLDPELPALDSDGDSDDGEDGRGDEKRKNKGTSDSSSGNVSEGESPPDSQEDSFQGRQKSKDKAATPRKDGPKRSVLSKSVPGYKPKVIPNAICGICLKGKESNKKGKAESLIHCSQCENSGHPSCLDMTMELVSMIKTYPWQCMECKTCIICGQPHHEEEMMFCDMCDRGYHTFCVGLGAIPSGRWICDCCQRAPPTPRKVGRRGKNSKEG
